Measurements: US20040053278A1
These are yes or no findings as the source states them, for the method shown. For some of these results: Binding seen in cells or lysates may run through a third protein. Some results given as binding are weak or reduced against the parent protein; the word gives no strength. Tags and fused reporters may be left off the sequences shown.

Experiments:
[1] = biological target: T1, activin type IB receptor (ActR-IB), wild type (UniProt P36896); test: affinity cross-linking and immunoprecipitation
T1 sequence (looked up): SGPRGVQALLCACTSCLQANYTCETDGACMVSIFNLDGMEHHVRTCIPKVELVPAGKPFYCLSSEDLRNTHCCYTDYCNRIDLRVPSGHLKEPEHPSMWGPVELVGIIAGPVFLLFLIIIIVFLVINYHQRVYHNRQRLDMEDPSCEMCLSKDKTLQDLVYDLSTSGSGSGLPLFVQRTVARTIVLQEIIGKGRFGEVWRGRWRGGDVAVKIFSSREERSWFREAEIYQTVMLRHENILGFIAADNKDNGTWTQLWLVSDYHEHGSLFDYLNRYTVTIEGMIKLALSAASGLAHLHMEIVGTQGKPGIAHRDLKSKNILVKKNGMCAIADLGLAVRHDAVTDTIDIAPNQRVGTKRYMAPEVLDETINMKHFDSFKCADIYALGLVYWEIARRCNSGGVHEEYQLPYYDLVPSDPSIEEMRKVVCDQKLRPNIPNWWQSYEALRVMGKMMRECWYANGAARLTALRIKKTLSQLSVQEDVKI

[2] = biological target: T2, wild type (wt) HA-tagged TβR-I (UniProt P36897); test: affinity cross-linking and immunoprecipitation
T2 sequence (looked up): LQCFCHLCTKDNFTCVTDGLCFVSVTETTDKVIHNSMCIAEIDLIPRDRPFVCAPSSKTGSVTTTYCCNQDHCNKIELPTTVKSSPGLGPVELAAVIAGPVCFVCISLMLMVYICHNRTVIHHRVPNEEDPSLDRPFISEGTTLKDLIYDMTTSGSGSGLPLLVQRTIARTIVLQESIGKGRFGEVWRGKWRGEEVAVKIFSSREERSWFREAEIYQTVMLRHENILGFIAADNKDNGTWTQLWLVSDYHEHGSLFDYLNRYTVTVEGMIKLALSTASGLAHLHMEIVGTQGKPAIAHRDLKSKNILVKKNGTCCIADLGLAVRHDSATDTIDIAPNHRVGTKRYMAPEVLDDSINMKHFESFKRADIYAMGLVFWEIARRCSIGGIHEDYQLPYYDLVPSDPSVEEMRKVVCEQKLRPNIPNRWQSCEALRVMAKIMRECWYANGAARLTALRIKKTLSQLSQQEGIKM

[3] = biological target: T3, activin type IB receptor (ActR-IB), kinase-defective (UniProt P36896); test: affinity cross-linking with 125I-activin A, immunoprecipitation, autoradiography
T3 sequence (looked up): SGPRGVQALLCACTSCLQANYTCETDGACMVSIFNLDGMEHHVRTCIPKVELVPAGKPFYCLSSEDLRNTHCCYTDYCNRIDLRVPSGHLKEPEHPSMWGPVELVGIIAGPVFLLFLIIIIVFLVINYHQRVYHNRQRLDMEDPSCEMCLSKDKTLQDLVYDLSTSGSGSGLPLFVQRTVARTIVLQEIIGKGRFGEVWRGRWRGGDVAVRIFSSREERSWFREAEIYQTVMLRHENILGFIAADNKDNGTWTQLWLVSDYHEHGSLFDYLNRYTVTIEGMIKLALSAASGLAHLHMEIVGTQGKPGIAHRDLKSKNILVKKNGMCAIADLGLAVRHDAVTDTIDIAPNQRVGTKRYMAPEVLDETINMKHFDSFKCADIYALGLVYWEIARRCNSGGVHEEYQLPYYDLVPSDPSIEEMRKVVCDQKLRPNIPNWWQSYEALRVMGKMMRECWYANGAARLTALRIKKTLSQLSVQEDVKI

[4] = biological target: T1, activin type IB receptor (ActR-IB), wild type; test: as above
TGF-β receptor complexes = TGF-β receptor complexes (UniProt P36897); test: affinity cross-linking with 125I-TGF-β1, coprecipitation from COS-7 lysates, autoradiography
[5] = biological target: T4, kinase-defective (KR) HA-tagged TβR-I (UniProt P36897); test: affinity cross-linking with 125I-TGF-β1, anti-FLAG immunoprecipitation from COS-7 lysates, autoradiography
T4 sequence (looked up): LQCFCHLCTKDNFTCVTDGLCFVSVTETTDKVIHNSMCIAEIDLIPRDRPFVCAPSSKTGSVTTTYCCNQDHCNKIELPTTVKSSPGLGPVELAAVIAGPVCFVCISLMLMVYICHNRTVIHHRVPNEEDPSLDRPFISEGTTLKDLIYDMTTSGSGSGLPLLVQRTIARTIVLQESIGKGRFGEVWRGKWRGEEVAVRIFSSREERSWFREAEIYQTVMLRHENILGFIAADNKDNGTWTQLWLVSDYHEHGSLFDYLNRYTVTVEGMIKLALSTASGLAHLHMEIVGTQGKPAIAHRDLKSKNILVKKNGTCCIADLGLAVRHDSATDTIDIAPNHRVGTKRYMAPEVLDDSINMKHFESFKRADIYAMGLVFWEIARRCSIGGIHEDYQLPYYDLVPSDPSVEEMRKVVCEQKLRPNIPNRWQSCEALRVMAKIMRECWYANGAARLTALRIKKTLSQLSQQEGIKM

[6] = biological target: T2, wild type (wt) HA-tagged TβR-I; test: as above

Measured: binding

B1: FLAG-tagged Smad6 (protein, not shown: small tags and cut ends)
chain: MFRSKRSGLVRRLWRSRVVPDREEGSGGGGGVDEDGSLGSRAEPAPRAREGGGCSRSEVRSVAPRRPRDAVGPRGAAIAGRRRRTGGLPRPVSESGAGAGGSPLDVAEPGGPGWLPESDCETVTCCLFSERDAAGAPRDSGDPQARQSPEPEEGGGPRSREARSRLLLLEQELKTVTYSLLKRLKERSLDTLLEAVESRGGVPGGCVLVPRADLRLGGQPAPPQLLLGRLFRWPDLQHAVELKPLCGCHSFTAAADGPTVCCNPYHFSRLCGPESPPPPYSRLSPPDQYKPLDLSDSTLSYTETEATNSLITAPGEFSDASMSPDATKPSHWCSVAYWEHRTRVGRLYAVYDQAVSIFYDLPQGSGFCLGQLNLEQRSESVRRTRSKIGFGILLSKEPDGVWAYNRGEHPIFVNSPTLDAPGGRALVVRKVPPGYSIKVFDFERSGLLQHADAAHGPYDPHSVRISFAKGWGPCYSRQFITSCPCWLEILLNNHR
binds: all assays above
